This is one part of the list. Shown are side measurements of this screen, not its main read-out; they come without a call. Most of these compounds were active or inconclusive in the main read-out, so they are no random draw. The note in brackets gives the kind of curve behind each potency; many fits are weak.

The nature of the test: qHTS Assay for Lipid Storage Modulators in Drosophila S3 Cells.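 On cell number change: cells counted by Cell Tracker Red CMTPX staining in the red channel.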 As to conditions: BODIPY lipid droplet fluorescence, 18-24 h; for cell number change: measured here: cell count max response, cells fed with added oleic acid. Summed up: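 Drosophila S3 cells got compounds at several concentrations plus oleic acid (400 uM solution). Laser-scanning cytometry with 488 nm excitation read lipid droplets at 500-530 nm and cells at 575-640 nm. Percent activity was relative to 20 uM Triacsin C.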

[1] abbreviates: measured here: lipid fluorescence (Fed channel) AC50, cells fed with added oleic acid.
Setting [2] is: measured here: cell number channel AC50, cells fed with added oleic acid.

For the compound `COCCCN(C(=O)c1cc(C)oc1C)c1c(N)n(CC(C)C)c(=O)[nH]c1=O`, the AC50 under setting [1] is 16.4 µM [rising, partial curve].
Regarding `Nc1n[nH]c(N)c1N=Nc1cccc(C(F)(F)F)c1`, the cell number change is -27.8%. For the same compound, the half-maximal activity concentration (AC50) under setting [1] was 29.1 µM [falling, single point].
Regarding `Cc1ccccc1-n1ncc(C(C)NC(=O)c2ccccc2)c1C` (stereo not drawn), the cell number change is -38.6%. Under setting [2], the AC50 is 0.103 µM [falling, full curve]. The AC50 under setting [1] is 0.164 µM [falling, full curve, poor fit].
As for `CC1(C)C(c2cccs2)=NC(c2ccccc2)N1O` (stereo not drawn), the cell number change stood at 4.58%. Also, the AC50 under setting [1] is 20.6 µM [rising, single point].
Take `Cc1ccc(S(=O)(=O)N(C)c2ccc(C(=O)Nc3ccccn3)cc2)cc1`: the cell number change was 25.4%. In addition, the concentration at half-maximal activity (AC50) under setting [2] was 1.03 µM [rising, full curve, poor fit]. Further, the AC50 under setting [1] was 1.46 µM [rising, full curve].
As for `Cc1c(Cl)cccc1NC(=O)C1NC(=O)CC1c1ccccc1` (stereo not drawn), the cell number change is -30.5%.
For `CCOc1ccc(C(=O)Nc2cc3c(cc2N2CCCC2)n(CC)c(=O)n3CC)cc1OCC`, the cell number change is -21.7%. For the same compound, the AC50 under setting [1] was 29.1 µM [falling, single point].
With `CSc1nc(-c2ccccc2)nc(N2CCCC2)c1C(C)=O`, the cell number change is -16.1%. Further, under setting [2], the AC50 is 0.366 µM [falling, full curve, poor fit].
For the compound `O=C(Cn1nnc(-c2ccccc2)n1)N/N=C/c1ccco1`, the cell number change is 9.98%.
Consider `NC(=O)c1c(NC(=O)C(=O)NCCCN2CCOCC2)sc2c1CCCC2`, for which the cell number change is 8.96%.
Consider `CCOC(=O)c1cccc(NC(=O)CCS(=O)(=O)c2cccs2)c1`, for which the cell number change is -4.2%. The AC50 under setting [1] is 0.731 µM [rising, partial curve, poor fit].
On to `Cc1ccc(C(C)C)c(OCC(=O)NC2CCN(C)CC2)c1`, for which the cell number change is 5.5%. For the same compound, the AC50 under setting [2] is 0.651 µM [falling, single point].
As to `CCOC(=O)COc1ccc(S(=O)(=O)NCc2cccnc2)cc1`, the cell number change was -5.47%. Under setting [1], the AC50 was 25.9 µM [falling, single point].
With `CN1C(=O)C2(Nc3ccccc3-c3nc4ccccc4n32)c2ccccc21` (stereo not drawn), the cell number change was -23.7%. In addition, under setting [1], the AC50 was 29.1 µM [falling, single point].
For the compound `COc1ccc(N(CC(=O)NCc2ccco2)S(=O)(=O)c2c(C)nn(C)c2C)cc1`, the cell number change is 6.63%.
As to `CCCc1cc(=O)oc2cc(C)cc(OCC(=O)N[C@@H](CSCc3ccccc3)C(=O)O)c12`, the cell number change is -5.29%. Moreover, under setting [1], the AC50 was 6.51 µM [rising, single point].
Regarding `CC(OC(=O)C1=Cc2ccccc2OC1)C(=O)NC1CCCC1` (stereo not drawn), the AC50 under setting [1] is 0.326 µM [rising, single point].
Take `CC(NC(=O)C1CCCN(S(=O)(=O)c2ccc(-n3cnnn3)cc2)C1)c1ccc(F)cc1` (stereo not drawn): the cell number change amounted to 48.7%. Moreover, the AC50 under setting [2] was 23.1 µM [rising, single point]. Moreover, the AC50 under setting [1] is 6.51 µM [rising, partial curve].
For `COc1ccc(N2CCN(C(=O)c3ccccc3NS(=O)(=O)c3ccccc3)CC2)cc1`, the cell number change came out at 13.6%. Further, under setting [1], the AC50 is 6.51 µM [rising, single point].
Turning to `O=C(Nc1ccccc1Cl)c1ccccc1Cc1ccccc1`, the cell number change was -0.497%. Also, the half-maximal activity concentration (AC50) under setting [1] is 0.231 µM [falling, full curve, poor fit].
On to `COC(=O)c1ccc(NC(=O)c2cc(-c3ccncc3)nc3ccccc23)cc1`, for which the cell number change came out at 14.4%. Under setting [1], the AC50 is 0.58 µM [rising, partial curve, poor fit].
As for `Cc1ccc([N+](=O)[O-])cc1-c1ccc(/C=C(\C#N)c2[nH]nc(N)c2C#N)o1`, the cell number change is -74.5%. Besides, the concentration at half-maximal activity (AC50) under setting [2] is 29.1 µM [falling, single point]. Moreover, the AC50 under setting [1] was 0.326 µM [rising, full curve, poor fit].
For `CCOC(=O)C1CCN(C(=O)c2cc3c(=O)n4ccccc4nc3n2C)CC1`, the cell number change is 142%. For the same compound, under setting [2], the AC50 was 29.1 µM [rising, single point]. Also, the AC50 under setting [1] is 29.1 µM [rising, single point].
In the case of `Oc1cccc(NC(=S)Nc2ccccc2)c1`, the cell number change came to 3.57%. In addition, the AC50 under setting [1] was 2.91 µM [rising, partial curve].
For `O=C(NCc1cccs1)C1CCC(CNS(=O)(=O)c2ccccc2)CC1` (stereo not drawn), the cell number change was found to be 11.7%.
With `CCOc1cc(C2NC(=O)N(C)C(C)=C2C(=O)OC)cc(Br)c1O` (stereo not drawn), the cell number change came out at 159%. Besides, the AC50 under setting [2] was 23.1 µM [rising, single point].
For `Cc1cc(S(=O)(=O)/N=C(\N)c2ccc(C(N)=O)cc2)cc(C)c1F`, the cell number change turned out to be 17%.
For `Cc1ccccc1C(=O)N1CCc2cc(-c3csc(NC(=O)CN4CCCC4)n3)ccc21`, the cell number change is -7.69%.
On to `C/C(=N\NC(=O)c1ccc(O)cc1)c1ccc2c(c1)Nc1ccccc1S2`, for which, under setting [1], the AC50 was 0.651 µM [rising, full curve, poor fit].
As to `CC(O)[C@H]1CC[C@H]2[C@@H]3CC[C@H]4C[C@@H](O)CC[C@]4(C)[C@H]3/C(=N/O)C[C@]12C` (stereo partly drawn), the cell number change is -40.3%. Moreover, under setting [2], the half-maximal activity concentration (AC50) is 20.6 µM [falling, single point]. Also, the AC50 under setting [1] was 29.1 µM [falling, partial curve, poor fit].
`O=C(Nc1c(-c2ccccc2)nc2ccccn12)c1cccs1`: the cell number change was found to be 13.7%. Besides, the AC50 under setting [1] was 14.6 µM [rising, partial curve, poor fit].
Turning to `O=C(Nc1ccc(-c2nc3ccccc3[nH]2)cc1)C1CCCO1` (stereo not drawn), the cell number change is -12.5%.
Regarding `O=C(CCCOc1ccc(Cl)cc1Cl)N1CCc2ccccc2C1`, the cell number change is -28.8%. Moreover, under setting [1], the AC50 was 23.1 µM [falling, single point].
As to `COc1ccc(/C=C2\SC(=O)N=C2N)cc1OC`, the cell number change was found to be 10.4%. The AC50 under setting [1] was 23.1 µM [rising, partial curve, poor fit].
`CCNc1nc(C(=O)O)nc(N2CCOCC2)n1`: the cell number change is -21.9%. In addition, under setting [1], the AC50 is 8.2 µM [falling, partial curve].
For `COc1ccc2c(-c3ccccc3)cc3nnnn3c2c1`, the cell number change was determined as 2.34%. Further, the AC50 under setting [1] is 0.259 µM [rising, full curve, poor fit].
On to `c1ccc(-c2oc3ncnc(NCCN4CCOCC4)c3c2-c2ccccc2)cc1`, for which the cell number change is -33.6%. Moreover, under setting [2], the AC50 was 18.4 µM [falling, single point].
Regarding `Cc1cccc(NC(=O)Cn2cc(C=O)c3ccccc32)c1`, the cell number change stood at 330%.
As to `Cc1ccccc1OCC(=O)N1CCCCCCC1`, the cell number change was -1.66%. Under setting [1], the AC50 is 4.61 µM [rising, single point].
In the case of `CCN1/C(=C/C(=O)c2ccco2)Sc2ccccc21`, the cell number change is -35.2%. For the same compound, the AC50 under setting [2] was 1.03 µM [falling, full curve]. The AC50 under setting [1] was 2.31 µM [falling, partial curve].
Take `O=C(NCc1ccccc1)C1CCC(=O)N(CCCN2CCCC2=O)C1` (stereo not drawn): the cell number change stood at 9.79%. Moreover, under setting [1], the AC50 was 3.66 µM [falling, partial curve].
With `CCCNC(=O)c1ccc(N2CCC3(CC2)CC(c2ccccc2)=NO3)c(NC(=O)c2ccco2)c1`, the AC50 under setting [1] was 4.61 µM [falling, partial curve].
As for `COC(=O)C1CCN(C(=O)c2ccc3oc(Cc4ccc(Cl)cc4)nc3c2)CC1`, the cell number change was determined as 30.8%. For the same compound, the AC50 under setting [2] was 0.58 µM [rising, full curve, poor fit].
On to `O=C(COC(=O)Cc1c(Cl)cccc1Cl)NCCC1=CCCCC1`, for which the cell number change was -7.73%. Also, the AC50 under setting [1] is 0.58 µM [falling, full curve].
Regarding `Cc1ccn2c(C(=O)NN=C3CCCCCCC3)c(C)nc2c1`, the cell number change is 32.7%. Also, the AC50 under setting [2] is 25.9 µM [rising, partial curve, poor fit]. Besides, the AC50 under setting [1] was 10.3 µM [rising, partial curve].
On to `c1ccc2[nH]c(SCc3ccc(-c4nnco4)cc3)nc2c1`, for which the cell number change was -28.2%.
As to `Cc1ccc(C(=O)N/N=C\c2cccnc2)s1`, the cell number change amounted to 16.5%. In addition, the AC50 under setting [2] is 0.164 µM [rising, full curve, poor fit]. Besides, under setting [1], the AC50 is 1.84 µM [rising, partial curve].
Consider `O=C(NCc1ccc(F)cc1)c1cccc(NC2=NC3CS(=O)(=O)CC3S2)c1` (stereo not drawn), for which the cell number change was 11.8%. Also, under setting [1], the AC50 is 11.6 µM [falling, single point].
For `Cc1cc(C)cc(OCC(=O)NNC(=O)c2ccccn2)c1`, the cell number change turned out to be 5.49%. For the same compound, the AC50 under setting [1] was 8.2 µM [falling, partial curve].
With `CC(C)(C)c1ccc(C(=O)NCCC(=O)Nc2ccc3c(c2)OCCO3)cc1`, the cell number change is -11.3%.
As to `O=C(C1CC1)N1CCc2cc(S(=O)(=O)NCc3ccccc3)ccc21`, the cell number change was -27.2%. Moreover, under setting [1], the AC50 was 4.11 µM [falling, full curve].
For `COc1ccc(N2CC(C(=O)N/N=C/c3ccc(C)cc3)CC2=O)cc1` (stereo not drawn), the cell number change worked out at 20.8%. Besides, the concentration at half-maximal activity (AC50) under setting [2] was 6.51 µM [falling, single point].
Regarding `N#Cc1c(N)n(-c2ccccc2)c(=O)c2cc([N+](=O)[O-])ccc12`, the cell number change turned out to be 98.4%. For the same compound, the AC50 under setting [2] is 2.06 µM [falling, partial curve].
`O=C1CCN(CCc2ccccc2)CCN1[C@H](COc1ccccc1)c1ccccc1`: the cell number change is 9.06%. Besides, the AC50 under setting [1] is 29.1 µM [falling, single point].
For `O=C(COC(=O)/C=C/c1ccc2ccccc2n1)NNC(=O)c1ccc([N+](=O)[O-])cc1`, the AC50 under setting [2] is 6.51 µM [falling, single point].
On to `O=C(NCCNC(=O)c1ccccc1Br)c1cccnc1`, for which the cell number change is 9.94%. For the same compound, the AC50 under setting [1] was 29.1 µM [rising, single point].
Turning to `COc1ccccc1CNC(=O)C1CCN(S(C)(=O)=O)CC1`, the cell number change came out at 6.89%. The AC50 under setting [1] was 0.731 µM [rising, single point].
`CCCC(=O)N(CCN1CCOCC1)c1nc2c(C)ccc(C)c2s1`: the cell number change was -19.4%. For the same compound, the AC50 under setting [1] was 5.8 µM [rising, single point].
For the compound `Cc1nc2ccccc2n1CCN1CCOCC1`, the cell number change turned out to be 5.01%.
With `OC(c1ccccc1)(c1ccccc1)C1CCN(C(=S)NC2CCCC2)CC1`, the cell number change was -8.46%. In addition, the concentration at half-maximal activity (AC50) under setting [2] was 0.13 µM [falling, full curve, poor fit].
Take `COCCOc1ccc(C(F)(F)F)cc1Nc1nc2ccccc2o1`: the cell number change was 15%. Besides, under setting [1], the AC50 was 2.91 µM [rising, partial curve].
For the compound `COc1ccc(C(=O)NCCN2CCCC2)cc1`, the cell number change stood at 7.41%. The AC50 under setting [1] was 29.1 µM [rising, single point].
`CCN(CC)S(=O)(=O)c1ccc2[nH]c(=O)cc(C(=O)Nc3ccccc3N3CCOCC3)c2c1`: the cell number change was -35.6%. For the same compound, the AC50 under setting [2] is 0.0461 µM [falling, full curve].
